# Values from PubChem BioAssay AID1671195 (Yale University, 2021)
# Test: 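Knockdowns that increase or decrease uptake of fluorescent LDL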 (primary screen)
# System: human Huh7 hepatoma cells
# Reagent: siRNA pool against human genes, 18 nM
# Duration: about 2 to 2.5 days of knockdown, then 8 h LDL uptake
# Challenge: DiI-labelled LDL at 30 µg/ml for 8 h, in lipoprotein-deficient serum medium
# Detection: 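Fluorescent LDL signal imaged in cells, scaled to the plate median, robust z-score for each replicate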
# Direction: robust z-score: higher = more LDL uptake after knockdown
# Hit rule: 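Active when two or more replicates show a robust z-score above 2 or below -2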
# In all, the deposit lists about 22,000 reagents; below is a part drawn at random. About 1,510 of them (6.9%) count as active. 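Active includes knockdowns raising or lowering LDL uptake; positive z-scores mean more uptake, negative mean less.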
gene knocked down,"robust z-score, replicate 1","robust z-score, replicate 2","robust z-score, replicate 3",Outcome
GABPB2 (GA binding protein transcription factor subunit beta 2),-1.01,-0.271,-0.00633,inactive
LY6G6F (lymphocyte antigen 6 family member G6F),0.802,1.11,1.3,inactive
MTSS2 (MTSS I-BAR domain containing 2),0.0263,-0.96,-1.13,inactive
CLN5 (CLN5 lysosomal BMP synthase),-1.15,-0.615,-1.3,inactive
LOC440493 (retired record),1.94,1.59,2.12,inactive
UCMA (upper zone of growth plate and cartilage matrix associated),-0.0371,0.162,-0.0627,inactive
TUBB2B (tubulin beta 2B class IIb),-0.0741,0.952,0.536,inactive
MSR1 (macrophage scavenger receptor 1),1.85,0.0373,0.0691,inactive
NPBWR2 (neuropeptides B and W receptor 2),-0.719,-1.73,-1.32,inactive
SLC26A3,-1.77,-1.79,-1.45,inactive
OR4K5 (olfactory receptor family 4 subfamily K member 5),0.586,0.894,0.82,inactive
UBQLN2 (ubiquilin 2),1.41,1.34,-2.07,inactive
C10orf55 (chromosome 10 putative open reading frame 55),-1.32,-1.03,-1.56,inactive
RPL7P38 (ribosomal protein L7 pseudogene 38),-0.675,-0.757,-1.26,inactive

Continued (2 carried over from the part before).
gene knocked down,"robust z-score, replicate 1","robust z-score, replicate 2","robust z-score, replicate 3",Outcome
C10orf55 (chromosome 10 putative open reading frame 55),-1.32,-1.03,-1.56,inactive
RPL7P38 (ribosomal protein L7 pseudogene 38),-0.675,-0.757,-1.26,inactive
CLASRP (CLK4 associating serine/arginine rich protein),-0.973,-1.36,-0.443,inactive
CXCL1 (C-X-C motif chemokine ligand 1),0.792,1.31,0.646,inactive
FLJ46552 (retired record),0.371,-1.34,0.323,inactive
ZFP36 (ZFP36 zinc finger CCCH-type),0.138,0.15,0.195,inactive
VCPKMT (valosin containing protein lysine methyltransferase),2.55,2.45,2.58,active
PMP2 (peripheral myelin protein 2),-1.18,-0.115,-0.865,inactive
TEX35 (testis expressed 35),0.495,-0.203,1.88,inactive
FCF1 (FCF1 rRNA-processing protein),0.971,0.487,0.755,inactive
LOC390704 (retired record),-0.876,-0.818,-0.632,inactive
NOP10 (NOP10 ribonucleoprotein),-1.26,-0.702,0.248,inactive
SERPING1 (serpin family G member 1),0.511,2.66,1.08,inactive
NOXO1 (NADPH oxidase organizer 1),-0.804,1.36,0.725,inactive
GRIN2A (glutamate ionotropic receptor NMDA type subunit 2A),0.306,0.208,-0.3,inactive
ZDHHC2 (zDHHC palmitoyltransferase 2),0.505,0.855,-0.331,inactive
